In publication PMC5041083:
These are yes or no findings as the source states them, for the method shown. In cells and extracts the contact can be indirect. Some binding calls cover weakened binding; strength is not graded here. Tags and fused reporters may be left off the sequences shown.

The chains behind the UniProt entries cited, without tags or fusion partners.
UniProt P49674: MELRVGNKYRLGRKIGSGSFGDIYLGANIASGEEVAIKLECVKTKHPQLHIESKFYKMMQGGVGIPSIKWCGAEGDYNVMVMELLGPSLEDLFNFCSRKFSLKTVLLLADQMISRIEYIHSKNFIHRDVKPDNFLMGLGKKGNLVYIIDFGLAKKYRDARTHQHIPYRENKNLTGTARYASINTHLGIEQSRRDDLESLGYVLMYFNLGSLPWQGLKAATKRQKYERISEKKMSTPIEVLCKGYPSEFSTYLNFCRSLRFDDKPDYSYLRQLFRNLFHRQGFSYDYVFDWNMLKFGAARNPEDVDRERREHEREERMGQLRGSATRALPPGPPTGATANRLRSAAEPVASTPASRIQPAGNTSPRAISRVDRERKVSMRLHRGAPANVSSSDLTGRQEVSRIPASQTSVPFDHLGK

Target: T1, FAM83H-FLAG (UniProt Q6ZRV2)
T1 sequence: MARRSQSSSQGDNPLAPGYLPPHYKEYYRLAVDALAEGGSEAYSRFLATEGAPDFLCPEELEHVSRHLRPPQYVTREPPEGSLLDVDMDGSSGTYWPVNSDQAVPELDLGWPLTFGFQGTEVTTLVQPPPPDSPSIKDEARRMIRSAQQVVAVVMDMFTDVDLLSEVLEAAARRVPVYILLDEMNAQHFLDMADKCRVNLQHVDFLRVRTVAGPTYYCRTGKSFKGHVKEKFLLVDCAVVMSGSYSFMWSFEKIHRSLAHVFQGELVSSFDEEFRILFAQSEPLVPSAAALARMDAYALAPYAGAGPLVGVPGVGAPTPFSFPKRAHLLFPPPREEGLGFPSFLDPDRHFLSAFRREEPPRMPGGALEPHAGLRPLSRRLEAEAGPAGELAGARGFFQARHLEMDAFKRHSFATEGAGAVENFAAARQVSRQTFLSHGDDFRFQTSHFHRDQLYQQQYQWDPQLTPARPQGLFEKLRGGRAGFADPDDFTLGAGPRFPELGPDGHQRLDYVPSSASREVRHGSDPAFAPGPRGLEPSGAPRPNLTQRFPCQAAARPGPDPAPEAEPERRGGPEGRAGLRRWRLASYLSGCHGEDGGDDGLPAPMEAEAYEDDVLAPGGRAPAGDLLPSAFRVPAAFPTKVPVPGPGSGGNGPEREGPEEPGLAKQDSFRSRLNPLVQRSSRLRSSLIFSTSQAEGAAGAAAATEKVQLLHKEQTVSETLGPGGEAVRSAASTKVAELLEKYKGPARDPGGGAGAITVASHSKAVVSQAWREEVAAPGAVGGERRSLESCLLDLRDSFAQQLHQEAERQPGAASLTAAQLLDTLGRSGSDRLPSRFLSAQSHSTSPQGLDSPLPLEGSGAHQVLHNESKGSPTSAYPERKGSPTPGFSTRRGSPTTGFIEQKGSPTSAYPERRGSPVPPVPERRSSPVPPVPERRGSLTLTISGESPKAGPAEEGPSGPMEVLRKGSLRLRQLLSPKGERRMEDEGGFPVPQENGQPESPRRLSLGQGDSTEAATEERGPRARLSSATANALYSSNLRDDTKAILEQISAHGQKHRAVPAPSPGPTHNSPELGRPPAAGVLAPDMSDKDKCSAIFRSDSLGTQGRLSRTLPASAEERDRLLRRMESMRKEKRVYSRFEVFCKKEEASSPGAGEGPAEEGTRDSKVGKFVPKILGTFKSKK
Assay: co-IP; RKO-F3 cells stably expressing FAM83H-FLAG and RKO-C1 control cells; lysate in PBS with Triton X-100, sonicated; anti-FLAG antibody not cross-linked to Protein G Dynabeads; Western blot (Fig. 5g)

casein kinase 1ε (from UniProt P49674 1-416) (enzyme)
binding: binds
